Earlier results in US7147837B2, “Bioactivated diagnostic imaging constrast agents” (Epix Pharmaceuticals, Inc., priority 1996, dated 2006).
For at least one compound, name, drawing or mass did not settle the structure.

Protein sequences, listed by entry. Tags and fused reporters are not part of them. Residues count along the entry.
UniProt P02768, 25-609: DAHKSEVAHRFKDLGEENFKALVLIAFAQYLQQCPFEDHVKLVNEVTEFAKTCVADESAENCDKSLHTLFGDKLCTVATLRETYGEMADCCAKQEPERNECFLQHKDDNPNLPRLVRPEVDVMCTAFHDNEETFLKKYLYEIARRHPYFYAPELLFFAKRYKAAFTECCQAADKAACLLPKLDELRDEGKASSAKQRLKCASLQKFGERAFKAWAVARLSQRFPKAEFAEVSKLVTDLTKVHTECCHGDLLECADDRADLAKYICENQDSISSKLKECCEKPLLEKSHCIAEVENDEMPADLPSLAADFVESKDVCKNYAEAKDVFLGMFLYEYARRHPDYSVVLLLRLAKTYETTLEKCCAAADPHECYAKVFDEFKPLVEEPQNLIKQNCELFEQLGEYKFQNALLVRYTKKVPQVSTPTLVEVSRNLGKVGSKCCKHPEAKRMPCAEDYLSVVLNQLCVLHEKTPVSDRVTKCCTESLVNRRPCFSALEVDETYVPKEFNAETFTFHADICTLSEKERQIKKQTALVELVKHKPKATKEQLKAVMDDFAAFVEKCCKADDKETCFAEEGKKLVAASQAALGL

Target: HSA (Homo sapiens, UniProt P02768)
Details: cited from earlier work

**Q.** For `C[C@H](CCC(=O)O)[C@H]1CC[C@H]2[C@@H]3CC[C@@H]4C[C@H](O)CC[C@]4(C)[C@H]3CC[C@]12C` [lithocholic acid], which binding constant is on record?
**A.** 2.0×10^5
